For 1 substance, binding results are on record in article doi:10.1101/2025.05.21.655409.

Results are given in words; binding and its absence hold for the method and conditions named. Some results given as binding are weak or reduced against the parent protein; the word gives no strength.

The target of the experiment is Cullin 5 (CUL5) (UniProt Q93034). The experiment can be described thus: co-purification (Ni-NTA, then SEC); proteins co-expressed in E. coli; clarified lysate on Ni-NTA resin, wash with 400 mM NaCl and 30 mM imidazole, then Superdex 200 16x600 in 20 mM Tris-HCl pH 8.0, 100 mM NaCl, 5% glycerol, 1 mM DTT.

With “RING-Box protein RBX2 (from UniProt Q9UBF6 1-113)”, the binding entry was “binds”.
